These are yes or no findings as the source states them, for the method shown. In cells and extracts the contact can be indirect. Some entries that bind do so weakly or less than the wild type.
Molecular target: T1, endogenous TRIM26 (human (endogenous in HEK293T, T98G and U118)) (UniProt Q12899)
T1 sequence: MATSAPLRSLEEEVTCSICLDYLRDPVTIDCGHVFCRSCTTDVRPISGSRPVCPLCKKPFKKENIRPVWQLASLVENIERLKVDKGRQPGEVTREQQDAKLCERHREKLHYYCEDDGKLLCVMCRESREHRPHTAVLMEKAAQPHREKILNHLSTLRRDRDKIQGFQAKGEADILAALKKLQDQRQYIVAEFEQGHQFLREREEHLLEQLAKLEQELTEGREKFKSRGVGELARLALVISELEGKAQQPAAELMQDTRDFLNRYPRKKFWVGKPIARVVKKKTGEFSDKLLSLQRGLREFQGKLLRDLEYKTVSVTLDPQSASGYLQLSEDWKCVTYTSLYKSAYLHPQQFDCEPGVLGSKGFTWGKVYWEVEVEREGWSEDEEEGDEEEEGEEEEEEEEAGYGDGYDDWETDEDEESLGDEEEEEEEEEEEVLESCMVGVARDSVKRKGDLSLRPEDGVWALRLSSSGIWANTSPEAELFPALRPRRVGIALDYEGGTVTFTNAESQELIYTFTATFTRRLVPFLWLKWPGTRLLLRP
Assay: co-IP; endogenous proteins; cell lysates (T98G and U118 in Fig. 5a-d) precleared, primary antibody 4 °C overnight, protein A/G agarose, IB; also after PLK1 siRNA, onvansertib or MLN0905 (interaction of TRIM26 and GPX4 decreased)

By UniProt entry, the sequences of proteins in these tests, tags left out.
UniProt P53350: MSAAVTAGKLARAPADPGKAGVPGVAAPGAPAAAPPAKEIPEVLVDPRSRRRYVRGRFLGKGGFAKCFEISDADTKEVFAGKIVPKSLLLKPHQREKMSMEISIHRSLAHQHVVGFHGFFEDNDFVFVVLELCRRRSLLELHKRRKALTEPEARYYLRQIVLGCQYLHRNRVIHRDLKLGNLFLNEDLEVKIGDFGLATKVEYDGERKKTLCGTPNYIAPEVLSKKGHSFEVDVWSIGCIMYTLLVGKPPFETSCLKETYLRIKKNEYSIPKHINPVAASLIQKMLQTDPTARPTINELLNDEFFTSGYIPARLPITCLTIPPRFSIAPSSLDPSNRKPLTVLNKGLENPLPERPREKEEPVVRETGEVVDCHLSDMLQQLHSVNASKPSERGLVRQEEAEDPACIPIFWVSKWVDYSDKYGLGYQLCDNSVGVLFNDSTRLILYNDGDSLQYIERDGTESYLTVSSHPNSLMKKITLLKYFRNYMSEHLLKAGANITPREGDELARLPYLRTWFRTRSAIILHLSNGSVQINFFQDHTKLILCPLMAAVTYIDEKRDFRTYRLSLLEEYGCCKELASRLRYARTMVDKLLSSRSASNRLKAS

binding: binds
Substance: endogenous PLK1 (from UniProt P53350 1-603) (enzyme)

— PMC10593845
